Test results reported in patent US9018233B2, “Diaminoaryl derivatives substituted by carbamate and pesticidal composition containing same” (Kyung Nong Corporation, priority 2012, dated 2015).
Some entries share one result that the patent states for a list of compounds.

What was measured:
[1] = system: Tobacco Cutworm Moth (Spodoptera litura); assay: Insecticidal activities against tobacco cutworm moth measured by leaf-dip method; format: in vivo; conditions: 100 ppm, after 4 days, 2nd instar larvae
Protocol: In this test, larvae descended from tobacco cutworm moths (Spodoptera litura), which had been collected in 2009 near Gyeongju area and reared in the laboratory, were used. […] […] The Petri dish was stored under light condition 16:8 hours, 25±1° C. and RH 50-60%, and then the number of larvae survived were counted 24, 48, 72 and 96 hours after the inoculation. As shown in Equations 1 and 2 above, the survival rate was calculated by calibrating the larvae density after treatment with the larvae density before treatment, and the control value is calculated by subtracting the survival rate in the treatment group from the survival rate in the control group and dividing the result by the survival rate in the control group.

[2] = reference insecticides; cited from earlier work
[3] = system: Honeybee (Apis mellifera); conditions: reference insecticides; cited from earlier work

Structure (SMILES)	percent control value [1]	log P [2]	LD50 for honeybee (acute contact toxicity) [3]
CNC(=O)c1cc(C(=O)Nc2c(C)cc(C#N)cc2NC(=O)OC)n(-c2ncccc2Cl)n1 [Example 59, methyl (2-(1-(3-chloropyridin-2-yl)-N^3-methyl-1H-pyrazole-3,5-dicarboxamido)-5-cyano-3-methylphenyl)carbamate]	at least 80%	–	–
CNC(=O)c1cc(Cl)cc(C)c1NC(=O)c1cc(Br)nn1-c1ncccc1Cl [chlorantraniliprole]	–	2.2-3.5	–
CNC(=O)c1cc(C#N)cc(C)c1NC(=O)c1cc(Br)nn1-c1ncccc1Cl [cyantraniliprole]	–	2.2-3.5	0.1-4 μg/bee
